Measured data: PubChem BioAssay AID504764 (Drosophila RNAi Screening Center, 2011)
In all, the deposit lists about 22,000 reagents; shown is an unselected part of those with a known target gene and a result. Of all reagents, 403 (1.9%) were called active. 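Unnormalised raw counts per well; ratio z-scores behind the hit calls and whether each hit raises or lowers signal are not deposited.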 Entries without a mark were called inactive. A plus sign joins genes that one reagent is predicted to hit. The record does not give: the amount of reagent.

- Aim: 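Genes whose knock-down alters Notch-dependent transcription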 (primary screen)
- Cells: Drosophila Kc167 cells
- Reagents: long dsRNA against Drosophila genes
- Time to read-out: about 5 days (4 days dsRNA, then 24 h after transfection)
- Conditions: transfection of constitutively active membrane-tethered Notch lacking the extracellular domain, read 24 h later
- Read-out: 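Firefly luciferase from an E(spl)m3 reporter with active Notch, plus control-promoter and uninduced reporter wells for normalisation; unnormalised counts, duplicate wells a and b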
- Reading the numbers: induced reporter light, run 1, well a and induced reporter light, run 1, well b: higher = more light from the Notch target reporter with active Notch; control promoter light, run 1, well a and control promoter light, run 1, well b: higher = more light from the viral control promoter (cell number, transfection, viability); uninduced reporter light, run 1, well a: higher = more light from the Notch target reporter without active Notch
- Hit rule: 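Wells with low control signal or poorly matching duplicates excluded; duplicates averaged; per source plate, z beyond ±2 for induced/control log2 ratio or beyond ±1.8 for induced/uninduced marks a hit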
- Calls: active = modifier hit (raised or lowered Notch signal); inactive = not a hit

| Target gene | dsRNA | induced reporter light, run 1, well a | induced reporter light, run 1, well b | control promoter light, run 1, well a | control promoter light, run 1, well b | uninduced reporter light, run 1, well a |
| --- | --- | --- | --- | --- | --- | --- |
| CG42697 (GeneID 10178822) | DRSC05740 | 1.08e5 | 1.33e5 | 1.63e5 | 1.33e5 | 8035 |
| CG14933 + CG42486 | DRSC02415 | 1.62e5 | 2.02e5 | 1.07e5 | 1.48e5 | 22820 |
| Chsy (GeneID 32497) | DRSC20175 | 69665 | 47845 | 62315 | 62020 | 8410 |
| Chsy (GeneID 32497) | DRSC20176 | 77460 | 82045 | 92545 | 69965 | 12140 |
| saturn (GeneID 317880) | DRSC09303 | 1.48e5 | 1.25e5 | 1.98e5 | 2.30e5 | 11255 |
| Sox21b (GeneID 39569) | DRSC10025 | 1.40e5 | 1.37e5 | 73020 | 81355 | 9970 |
| Sox21b (GeneID 39569) | DRSC10634 | 24295 | 13255 | 29520 | 30200 | 4590 |
| Vps13D (GeneID 39448) | DRSC09818 | 1.19e5 | 1.23e5 | 1.69e5 | 1.52e5 | 9465 |
| Vps13D (GeneID 39448) | DRSC09819 | 1.46e5 | 1.44e5 | 2.09e5 | 2.03e5 | 9020 |
| Alg1 (GeneID 42146) | DRSC15297 | 2.22e5 | 1.83e5 | 2.29e5 | 2.38e5 | 18165 |
| nmdyn-D6 (GeneID 32396) | DRSC20355 | 90295 | 68895 | 76990 | 68065 | 12390 |
| CG7126 (GeneID 42202) | DRSC16201 | 1.60e5 | 1.85e5 | 2.35e5 | 2.20e5 | 12578 |
| CG11168 (GeneID 42981) | DRSC14292 | 2.03e5 | 1.80e5 | 2.06e5 | 2.34e5 | 14290 |
| mthl11 (GeneID 117467) | DRSC12779 | 1.53e5 | 1.71e5 | 1.37e5 | 1.57e5 | 10570 |
| CG7950 + Rpp14a | DRSC16353 | 1.43e5 | 1.26e5 | 2.30e5 | 2.36e5 | 10415 |
| Taf6 (GeneID 40134) | DRSC11299 | 50110 | 65045 | 27820 | 33405 | 3025 |
| CtsL3 (GeneID 40741) | DRSC12171 | 1.68e5 | 1.25e5 | 94055 | 1.03e5 | 10415 |
| pyr (GeneID 36255) | DRSC06319 | 1.11e5 | 97450 | 1.24e5 | 1.23e5 | 9750 |
| CG32582 (retired record) (GeneID 318099) | DRSC19114 | 90540 | 1.01e5 | 94995 | 95270 | 8955 |
| CG1889 + CG43386 | DRSC17979 | 1.49e5 | 1.26e5 | 2.46e5 | 2.84e5 | 7875 |
| Daxx (GeneID 33906) | DRSC03255 | 1.09e5 | 88970 | 96850 | 84400 | 7515 |
| slim (GeneID 37121) | DRSC06921 | 1.04e5 | 1.24e5 | 2.00e5 | 2.04e5 | 7465 |
| mRpL2 (GeneID 39253) | DRSC10896 | 1.01e5 | 1.18e5 | 2.41e5 | 1.43e5 | 6170 |
| l(2)dtl (GeneID 46326) | DRSC04697 | 1.56e5 | 1.83e5 | 1.42e5 | 1.75e5 | 15865 |
| dao (GeneID 34891) | DRSC01960 | 1.08e5 | 1.42e5 | 1.27e5 | 1.21e5 | 8470 |
| Cyp6t3 (GeneID 36318) | DRSC07388 | 89855 | 85670 | 1.02e5 | 1.03e5 | 9125 |
| CG15312 (GeneID 31940) | DRSC18000 | 1.58e5 | 1.18e5 | 1.22e5 | 1.17e5 | 11930 |
| CG11089 + CG31381 | DRSC13690 | 2.00e5 | 1.78e5 | 1.92e5 | 1.77e5 | 17990 |
| CG11089 + CG31381 | DRSC14290 | 1.95e5 | 1.86e5 | 2.21e5 | 2.42e5 | 14505 |
| CG32447 (GeneID 40412) | DRSC11732 | 1.37e5 | 1.25e5 | 77855 | 80735 | 9160 |
| CG32447 (GeneID 40412) | DRSC11805 | 1.60e5 | 1.03e5 | 97615 | 79115 | 9315 |
| CG2765 (GeneID 37994) | DRSC04315 | 1.90e5 | 1.72e5 | 1.66e5 | 1.77e5 | 13135 |
| CG5357 (retired record) (GeneID 37712) | DRSC04497 | 1.45e5 | 1.44e5 | 1.22e5 | 1.19e5 | 11010 |
| CG7408 (GeneID 39991) | DRSC10841 | 2.10e5 | 2.01e5 | 2.74e5 | 2.08e5 | 10050 |

Single entries from the list:
Under “uninduced reporter light, run 1, well a”, Sox21b (GeneID 39569) [DRSC10634] reads 4590
CG7126 (GeneID 42202) [DRSC16201], induced reporter light, run 1, well a = 1.60e5
CG32447 (GeneID 40412) [DRSC11805], control promoter light, run 1, well a = 97615
Under “control promoter light, run 1, well a”, mthl11 (GeneID 117467) [DRSC12779] is entered as 1.37e5
Chsy (GeneID 32497) [DRSC20176], uninduced reporter light, run 1, well a = 12140
